# Test results from PubChem BioAssay AID540256 (National Center for Advancing Translational Sciences (NCATS), 2011).
# Values joined by “and” are separate entries in the source; they are usually repeats but may differ in a detail not shown here. Equal entries are not always repeated. The whole screen tested about 300,000 compounds, of which about 3,700 (1.2%) were called active. Inconclusive means that the source gave no clear call. Such entries were picked first, then a sample of the others. Calls follow the shape of the full dose curve; tested in HEK293 cells. Potencies beside an inconclusive call are fits to weak or partial responses and may not hold up.
# Assay: qHTS for Inhibitors of binding or entry into cells for Lassa Virus; also: nearly all actives have a fitted effect of over 50% in size
# Conditions: Lassa virus pseudotype entry inhibition, cell reporter; series mostly up to 37.9 µM
# Potency is read from the fitted curve at half-maximal effect.
row,SMILES,Potency
1,CCCCOC(=O)Nc1ccc(C(=O)OCCC)cc1,"inconclusive: 7.3 µM [inhibitor, partial curve]"
2,c1ccc(CCNc2nc(-c3ccccn3)cs2)cc1,"inconclusive: 20.6 µM [activator, single point]"
3,Cc1ccc(NC(=O)/C(=C\c2ccccc2)NC(=O)c2ccco2)cc1,"inconclusive: 1.26 µM [activator, single point]"
4,CC(=NNc1nc2ccccc2s1)c1ncccn1,active: 1 µM
5,O=S(=O)(Nc1ccc(N2CCOCC2)cc1)c1c(F)cc(F)cc1Br,"inconclusive: 1.26 µM [inhibitor, single point]"
6,O=C(CN1C(=O)c2cccc3cccc1c23)Nc1cccc(F)c1,"inconclusive: 6.31 µM [inhibitor, single point]"
7,CC(=O)Nc1cccc(NC(=O)CSc2nccn2C2CCCC2)c1,inactive
8,CCC(=O)N1N=C2C3CCN(CC3)C2C1c1ccc(C)cc1 (stereo unspecified),inactive
9,C=CCc1ccccc1OCC(=O)N/N=C/c1ccc(OC(C)=O)cc1OC(C)=O,"inconclusive: 18.4 µM [inhibitor, single point]"
10,COc1ccccc1NC(=O)c1ccc(C(=O)c2ccccc2)o1,"inconclusive: 35.5 µM [inhibitor, single point]"
11,COc1cccc(CNC(=O)c2ccc3c(c2)N(Cc2ccc(F)cc2Cl)C(=O)c2ccccc2S3)c1,"inconclusive: 12.6 µM [inhibitor, single point]"
12,CSc1ccc(/C=C2/C(=N)N3N=C(CC(=O)N4CCCC4)SC3=NC2=O)cc1,"inconclusive: 5.01 µM [activator, full curve, poor fit]"
13,Cc1ccccc1CN1C(=O)c2ccccc2Sc2ccc(C(=O)NCc3ccccc3)cc21,"inconclusive: 2.51 µM [inhibitor, full curve, poor fit]"
14,N#Cc1c(Nc2ccccc2)c(C=O)c[nH]c1=O,inactive
15,CCCCNC(=O)COC(=O)c1ccccc1F,"inconclusive: 5.62 µM [activator, single point]"
16,CCOc1ccc(S(=O)(=O)Nc2ccc3c(c2)OCO3)c2cccnc12,inactive
17,COC(=O)c1ccc(N=NNc2ccc(C(=O)OC)cc2)cc1,"inconclusive: 0.92 µM [activator, full curve]"
18,CC(C)(C)C(=O)N1CCN(c2ccc([N+](=O)[O-])c(NCc3cccnc3)c2)CC1,"inconclusive: 35.5 µM [inhibitor, single point]"
19,Cc1ccc(S(=O)(=O)N2CCC(C(=O)Nc3ccc(S(=O)(=O)N4CCCC4)cc3)CC2)cc1C,"inconclusive: 20 µM [inhibitor, partial curve, poor fit]"
20,COC(=O)c1ccc(C(NC(=O)c2cccnc2)NC(=O)c2cccnc2)cc1,inactive
21,O=C(CSc1nnc(SCc2ccccc2)s1)N/N=C/c1ccc(C(=O)O)cc1,"inconclusive: 3.55 µM [inhibitor, partial curve, poor fit]"
22,COc1cccc(C(=O)N2CCN(C(=O)C3CC3)CC2)c1,"inconclusive: 6.31 µM [activator, partial curve, poor fit]"

row,SMILES,Potency
1,O=C(NCc1nc2ccccc2n1Cc1ccccc1Cl)c1ccccc1,inactive
2,CCOC(=O)c1sc(NC(=O)CCN2CCCCCC2)c(C(=O)OCC)c1C,"inconclusive: 35.5 µM [inhibitor, single point]"
3,COc1cccc(NC(=O)CSc2ccc(-c3sc(C)nc3C)nn2)c1,"inconclusive: 20 µM [inhibitor, partial curve, poor fit]"
4,COc1ccc(-n2nc(C(=O)NCC(=O)NC3CCCC(C)C3C)c3ccccc3c2=O)cc1 (stereo unspecified),"inconclusive: 12.6 µM [inhibitor, partial curve, poor fit]"
5,CN(C)C1=NP(N(C)C)(N(C)C)=NC(c2ccccc2)=N1,inactive
6,Oc1ccc(/C=N/NC(=S)Nc2cccnc2)c(O)c1O,"inconclusive: 35.5 µM [inhibitor, single point]"
7,CCN=C1S/C(=C\c2cn(CC(=O)NCCOC)c3ccccc23)C(=O)N1CC,"inconclusive: 31.6 µM [inhibitor, partial curve, poor fit]"
8,Cc1ccccc1CCN(C(=O)c1csnn1)C(C(=O)NC1CCCC1)c1ccncc1 (stereo unspecified),"inconclusive: 6.31 µM [inhibitor, single point]"
9,CCOC(=O)c1cc2c(N)c(C(=O)c3cc(C#N)c(SC)nc3C)sc2nc1C,"inconclusive: 16.4 µM [inhibitor, single point]"
10,CC(=O)Nc1cccc(-n2nnc(SCC(=O)N(C)c3ccccc3)n2)c1,"inconclusive: 2.51 µM [inhibitor, partial curve, poor fit]"
11,COC(=O)c1sccc1NC(=O)c1ccc(OC)c([N+](=O)[O-])c1,inactive
12,CCN(CC)C(=O)c1ccc(NC(=O)COc2ccc(-c3nn(C)c(=O)c4ccccc34)cc2)cc1,"inconclusive: 11.2 µM [inhibitor, partial curve, poor fit] and inconclusive: 22.4 µM [inhibitor, single point]"
13,Cc1nn(CC(O)COc2ccc3c(c2)CCC3)c(C)c1Br (stereo unspecified),"inconclusive: 7.3 µM [activator, partial curve]"
14,CC(C)[N+](C)(C)CC#CC(O)(c1ccccc1)c1ccccc1,"inconclusive: 6.31 µM [inhibitor, single point]"
15,CCOc1ccc(CNC(=O)c2cnc3c(C)cccn3c2=O)cc1,inactive
16,O=C(COc1ccc(Cl)cc1)Nc1cccc(-c2ccc(N3CCOCC3)nn2)c1,"inconclusive: 35.5 µM [inhibitor, single point]"
17,Cc1ccc(N2C(=O)C3CCC(C)(C2=O)C3(C)C)cc1C (stereo unspecified),"inconclusive: 0.891 µM [inhibitor, single point]"
18,O=C(c1cc(-c2ccc(Cl)cc2)on1)N1CCCCCC1,"inconclusive: 1 µM [activator, single point]"
19,CC(C)(C)N(Cc1cc2ccccc2[nH]c1=O)C(=O)c1cccc([N+](=O)[O-])c1,inactive
20,CCOC(=O)c1ccccc1NC(=O)c1cnn(-c2ccc(OC)cc2)c1C1CCN(C(=O)OC(C)(C)C)CC1,"inconclusive: 35.5 µM [activator, single point]"
21,O=C(Cc1cn(Cc2cccc(Cl)c2)c2ccccc12)N1CCCC1,"inconclusive: 0.794 µM [inhibitor, full curve, poor fit]"
22,Cn1c(=O)c2c(nc(CN3CCc4ccccc4C3)n2Cc2ccc(F)cc2)n(C)c1=O,inactive

# Some of these compounds in order of molar mass, falling:
row,SMILES,Potency
7,CCN=C1S/C(=C\c2cn(CC(=O)NCCOC)c3ccccc23)C(=O)N1CC,"inconclusive: 31.6 µM [inhibitor, partial curve, poor fit]"
13,Cc1nn(CC(O)COc2ccc3c(c2)CCC3)c(C)c1Br (stereo unspecified),"inconclusive: 7.3 µM [activator, partial curve]"
11,COC(=O)c1sccc1NC(=O)c1ccc(OC)c([N+](=O)[O-])c1,inactive

# (more compounds)

row,SMILES,Potency
1,C/C(=N\NC(=O)c1ccccc1Br)c1ccc(N2CCOCC2)cc1,inactive
2,COc1ccc(C(CNC(=O)c2cccc(S(=O)(=O)Nc3ccccc3OC)c2)N2CCCC2)cc1 (stereo unspecified),inactive
3,O=C(Nc1ccccc1)Nc1cccn(Cc2c(F)cccc2Cl)c1=O,"inconclusive: 29.1 µM [inhibitor, single point]"
4,CCOC(=O)c1ccc(NC(=O)CSc2nnc(-c3ccncc3)n2-c2ccccc2)cc1,inactive
5,COc1ccc(NC(=O)Nc2cc(C)cc(C)c2)cn1,inactive
6,CCN(CC)CCCN(C(=O)c1ccco1)c1nc(-c2ccc(Cl)cc2)cs1,"inconclusive: 10 µM [inhibitor, partial curve, poor fit]"
7,COc1ccc(C(=O)COC(=O)c2nn(C)cc2Cl)cc1,"inconclusive: 17.8 µM [inhibitor, single point]"
8,COc1ccc(CCNC(=O)CCN2C(=O)COc3ccc(C)cc32)cc1OC,"inconclusive: 0.58 µM [inhibitor, single point]"
9,Cc1ccc(-c2nc(S(=O)(=O)c3ccc(C)cc3)c(SCC(=O)c3ccccc3)o2)cc1,"inconclusive: 2.24 µM [inhibitor, full curve, poor fit]"
10,COc1cccc(-c2nc3ccc([N+](=O)[O-])cc3o2)c1,"inconclusive: 11.2 µM [activator, partial curve, poor fit]"
11,O=c1[nH]c(=O)n(C2OC(CO)C(O)C2O)cc1F (stereo unspecified),active: 2 µM
12,CCOCCn1ccc2c(OCC(=O)NCc3ccccc3)cccc2c1=O,"inconclusive: 11.2 µM [inhibitor, partial curve]"
13,CC(C)c1ccc(N(C(=O)c2cc3ccccc3oc2=O)C2C=CS(=O)(=O)C2)cc1 (stereo unspecified),"inconclusive: 22.4 µM [inhibitor, partial curve, poor fit]"
14,Cc1ccc(-c2nc(N3CCOCC3)sc2C(=O)N2CCOCC2)cc1,inactive
15,COc1cc(C(=O)Nc2nc3ccccc3s2)ccc1OCc1c(C)noc1C,"inconclusive: 29.1 µM [inhibitor, single point]"
16,N#C/C(=C\c1cccnc1)c1ccccc1[N+](=O)[O-],inactive
17,Cc1[nH]c2ccccc2c1/C=N/NC(=O)c1cc(C(C)(C)C)[nH]n1,"inconclusive: 1.26 µM [inhibitor, single point]"
18,O=C(CCN1C(=O)c2ccccc2C1=O)N1CCC(c2ccccc2)C1 (stereo unspecified),inactive
19,CCN(CC)C(=O)c1ccccc1NC(=O)c1cccc(S(=O)(=O)N2CCC(C)CC2)c1,inactive
20,Cc1ccc(-n2c(C)cc(C3N=C(N)Nc4nc5ccccc5n43)c2C)c(C)c1 (stereo unspecified),"inconclusive: 29.1 µM [inhibitor, single point]"
21,COc1ccc(/C=N/Nc2nnc(C)n2N)cc1OC(C)=O,"inconclusive: 11.2 µM [inhibitor, partial curve, poor fit]"
22,COC(=O)c1c(-c2ccc(C(C)(C)C)cc2)csc1NC(=O)C1C2CCC(O2)C1C(=O)O (stereo unspecified),"inconclusive: 20 µM [inhibitor, single point]"

# Reprinted at random: two entries already listed.
row,SMILES,Potency
5,COc1ccc(NC(=O)Nc2cc(C)cc(C)c2)cn1,inactive
2,COc1ccc(C(CNC(=O)c2cccc(S(=O)(=O)Nc3ccccc3OC)c2)N2CCCC2)cc1 (stereo unspecified),inactive
